# Source: patent US5618685A, “Activation of herpes simplex virus protease by kosmotropes” (priority 1995, dated 1997)
# Protein sequences, listed by entry. Tags and fused reporters are not part of them. Residues count along the entry.
# UniProt P10210, 1-247: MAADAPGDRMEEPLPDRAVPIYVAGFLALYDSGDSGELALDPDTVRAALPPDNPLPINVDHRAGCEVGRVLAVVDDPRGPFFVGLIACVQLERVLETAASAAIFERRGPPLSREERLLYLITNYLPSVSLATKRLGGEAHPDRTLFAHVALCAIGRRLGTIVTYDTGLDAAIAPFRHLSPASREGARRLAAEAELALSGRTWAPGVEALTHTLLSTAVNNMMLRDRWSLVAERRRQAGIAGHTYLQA
# At least one compound was matched to its structure with a doubt left.
# Molecular target: HSV-1 protease (Human herpesvirus 1, UniProt P10210)
# Description: For experiments examining anion effects, buffer solutions were prepared with the sodium salt of the anion and the pH was adjusted to 7.5 with concentrated HCl where necessary (i.e., citrate, glutamate, malate). An exception was phosphate, where NaH2 PO4 was prepared in the buffer and the pH adjusted upward with NaOH.
# Enzyme activity was measured with the peptide substrates […]-amide (SEQ.ID.NO.:2) and […]-amide (SEQ.ID.NO.:1), using HPLC for the separation of products from substrates as described in Darke et al., 1994, supra. The C-terminal cleavage products of enzymatic hydrolysis are SEKFKMW-amide (SEQ.ID.NO.:3) and […]-amide (SEQ.ID.NO.:4) respectively. Quantitation of the C-terminal cleavage product, containing tryptophan, in the HPLC effluent was with a Hewlett-Packard model 1046A fluorescence detector (excitation at 280 nm, emission at 350 nm). […] Reactions were performed at 37° C. in a pH 7.5 buffer containing 52 mM 4-morpholinoethanesulfonic acid (MES), 52 mM 3-(N-tris(hydroxymethyl)methylamino)-2-hyroxy-propanesulfonic acid (TAPSO) and 100 mM diethanolamine, 1 mM EDTA, 1 mM dithiothreitol, 0.1% bovine serum albumin, and the various additives listed in the Tables. […] Activity in Tables 1 and 2 is expressed as relative to the case where no additive was present in the reaction mixture.
structure (smiles),measurement,value
O=C(O)CC(C(=O)O)C(O)C(=O)O (stereo not shown) [Isocitrate],effect of anion/salt on HSV-1 protease activity (in words),strong activation
